Source: PubChem BioAssay AID602196 (INSERM, 2012)

Aim: 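Genes whose knock-down alters cisplatin killing of lung cancer cells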
System: human A549 lung cancer cells
Knock-down reagent: siRNA pair against human genes
Time to read-out: 48 h transfection before cisplatin; time from cisplatin to read-out not stated
Challenge: cisplatin at a dose killing half of control-siRNA cells; exact dose and duration not given
Detection: 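Cisplatin cell death as a shift from the 50% death seen with control siRNA; siRNAs toxic or growth-blocking alone scored 0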
Reading the numbers: two-siRNA summed score (-2 to +2): higher = both siRNAs protect from cisplatin killing; -2 means both sensitise
Rule for the call: 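Each siRNA scores 0 if harmful alone by LDH or WST-1, otherwise +1 if it reduces and -1 if it increases cisplatin killing; a gene is active when both siRNAs agree (sum +2 or -2)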
Calls: active = both siRNAs shift cisplatin killing the same way; inactive = no consistent shift, or siRNA harmful alone
Here is a random part of about 23,000 reagents tested. Of all reagents, 455 (2%) were called active. 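Active includes both protection and sensitisation; some change values fall well beyond the stated -50 to +50 range.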 Further read-outs or replicates are left out here. Not given: the amount of reagent.

{"gene":"APOBEC2 (apolipoprotein B mRNA editing enzyme catalytic subunit 2)","two-siRNA summed score (-2 to +2)":1,"Outcome":"inactive"}
{"gene":"KLF3-AS1 (KLF3 antisense RNA 1)","two-siRNA summed score (-2 to +2)":0,"Outcome":"inactive"}
{"gene":"ANKRD9 (ankyrin repeat domain 9)","two-siRNA summed score (-2 to +2)":0,"Outcome":"inactive"}
{"gene":"DCAF7 (DDB1 and CUL4 associated factor 7)","two-siRNA summed score (-2 to +2)":0,"Outcome":"inactive"}
{"gene":"TPD52L2 (TPD52 like 2)","two-siRNA summed score (-2 to +2)":0,"Outcome":"inactive"}
{"gene":"SLC5A8","two-siRNA summed score (-2 to +2)":0,"Outcome":"inactive"}
{"gene":"RETREG3 (reticulophagy regulator family member 3)","two-siRNA summed score (-2 to +2)":0,"Outcome":"inactive"}
{"gene":"LOC402695","two-siRNA summed score (-2 to +2)":0,"Outcome":"inactive"}
{"gene":"USP42 (ubiquitin specific peptidase 42)","two-siRNA summed score (-2 to +2)":0,"Outcome":"inactive"}
{"gene":"IFNA5 (interferon alpha 5)","two-siRNA summed score (-2 to +2)":1,"Outcome":"inactive"}
{"gene":"GTF2F2 (general transcription factor IIF subunit 2)","two-siRNA summed score (-2 to +2)":0,"Outcome":"inactive"}
{"gene":"ITGAD (integrin subunit alpha D)","two-siRNA summed score (-2 to +2)":0,"Outcome":"inactive"}

Targets listed so far whose gene name starts with A or a (2):
{"gene":"APOBEC2 (apolipoprotein B mRNA editing enzyme catalytic subunit 2)","two-siRNA summed score (-2 to +2)":1,"Outcome":"inactive"}
{"gene":"ANKRD9 (ankyrin repeat domain 9)","two-siRNA summed score (-2 to +2)":0,"Outcome":"inactive"}
